# The whole screen tested about 300,000 compounds, of which about 5,400 (1.8%) were called active. The inconclusive results got no clear call from the source; some entries with a clear call stand among them for comparison. Calls come from the whole dose curve; tested in HEK293 cells. Potencies beside an inconclusive call are fits to weak or partial responses and may not hold up.
# Experiment: qHTS for inhibitors of binding or entry into cells for Marburg Virus
# Settings: Marburg virus pseudotyped entry inhibition, cell reporter; series mostly up to 37.8 µM
# Potency is the fitted concentration of half-maximal effect.
row,SMILES,Potency
1,CCOC(=O)CCN1C(=O)[C@H]2[C@H]3[C@H](O)[C@H](O)C/C(=N\NC(=O)OCc4ccc(OC)cc4)[C@@H]3CC[C@H]2C1=O,inactive
2,Cc1c(NC(=O)CN2C(=O)NC(C)(c3ccccc3Cl)C2=O)c(=O)n(-c2ccccc2)n1C (stereo unspecified),inactive
3,CC(=O)c1cccc(Nc2nc(-c3cccc([N+](=O)[O-])c3)cs2)c1,"inconclusive: 35.5 µM [inhibitor, partial curve, poor fit]"
4,Cc1nc2ncc(Br)cc2[nH]1,"inconclusive: 8.91 µM [activator, partial curve, poor fit]"
5,COc1ccc(CNC(=O)c2nnn(CC(=O)Nc3cc(C)cc(C)c3)c2N)cc1,"inconclusive: 35.5 µM [inhibitor, single point]"
6,CN(C)CC(O)COC(c1ccc(Cl)cc1)c1ccc(Cl)cc1 (stereo unspecified),"inconclusive: 7.94 µM [inhibitor, partial curve, poor fit]"
7,Cc1cnc(C)c(N2CCC(C(=O)NCc3cccs3)CC2)n1,"inconclusive: 14.1 µM [activator, single point]"
8,COc1cc(NCCCC(C)N)c2ncccc2c1 (stereo unspecified),active: 3.55 µM
9,O=C(/C=C/c1ccccc1[N+](=O)[O-])N1CCOCC1,"inconclusive: 0.891 µM [inhibitor, full curve, poor fit]"
10,O=C1C(Nc2ccccc2)=C(N2CCCCC2)C(=O)c2ccccc21,"inconclusive: 10 µM [inhibitor, partial curve]"
11,Cc1cc(C)c(NC(=O)C2CSCCS2)c(C)c1 (stereo unspecified),"inconclusive: 10.3 µM [activator, partial curve, poor fit]"
12,Cc1n[nH]c(=O)nc1NCC1CCCO1 (stereo unspecified),"inconclusive: 1.16 µM [inhibitor, partial curve, poor fit]"
13,COc1cc(CNCCCN2CCOCC2)cc(Br)c1OCC(=O)N1CCCCC1,"inconclusive: 18.3 µM [inhibitor, single point]"
14,O=S1(=O)Nc2c(ccc3cccnc23)-c2ccccc21,"inconclusive: 3.26 µM [inhibitor, full curve, poor fit]"
15,COc1ccc(C(=O)/C=C/c2ccc(OC)c(CN3CCOCC3)c2)cc1,"inconclusive: 29.1 µM [inhibitor, single point]"
16,CCOC(=O)c1c(NC(=O)c2ccc(Br)o2)sc2c1CCCC2,"inconclusive: 18.3 µM [inhibitor, partial curve]"
17,Cc1ccc(-c2csc(-c3c[nH]c4ccccc34)n2)c(C)c1,"inconclusive: 15.8 µM [inhibitor, single point]"
18,COc1ccc(-c2[nH]ncc2/C=N\NS(=O)(=O)c2ccccc2)cc1OC,inactive
19,O=C(CSc1nnc2n1CCCCC2)Nc1ccc(N2CCOCC2)cc1,inactive
20,CCCC(O)c1nc2ccccc2n1CCCCOc1ccc(OC)cc1 (stereo unspecified),"inconclusive: 35.5 µM [activator, partial curve, poor fit]"
21,COc1cccc(-c2noc(C3CCCN(S(=O)(=O)c4cccc(Cl)c4C)C3)n2)c1 (stereo unspecified),"inconclusive: 6.51 µM [activator, single point]"
22,Cc1cccc(N=Nc2ccc(N(C)C)cc2)c1,"inconclusive: 1.58 µM [activator, partial curve, poor fit]"

# 2 entries from above in another layout.
row	SMILES	Potency
1	CCOC(=O)CCN1C(=O)[C@H]2[C@H]3[C@H](O)[C@H](O)C/C(=N\NC(=O)OCc4ccc(OC)cc4)[C@@H]3CC[C@H]2C1=O	inactive
10	O=C1C(Nc2ccccc2)=C(N2CCCCC2)C(=O)c2ccccc21	inconclusive: 10 µM [inhibitor, partial curve]

# (further entries)

row,SMILES,Potency
1,Cc1ccc(C(=O)NCC(=O)OCc2csc(-c3ccccc3)n2)cc1,inactive
2,Cc1cccc(-n2cnc(C(=O)NC3CCCCCC3)c2)n1,"inconclusive: 1.58 µM [activator, partial curve, poor fit]"
3,Cc1onc(-c2ccccc2)c1C(=O)Nc1nc(-c2ccccc2)cs1,"inconclusive: 35.5 µM [inhibitor, single point]"
4,Cc1ccc(CSc2ccc(-c3ccco3)nn2)cc1,"inconclusive: 3.98 µM [activator, single point]"
5,Cc1nc(NC(=O)C(C)Oc2cccc(Cl)c2)sc1C(=O)N(C)C (stereo unspecified),"inconclusive: 6.31 µM [inhibitor, single point]"
6,O=C(NNC(=O)c1c(F)cccc1F)c1ccccc1OC(F)(F)F,"inconclusive: 5.62 µM [inhibitor, single point]"
7,Cc1ccccc1OCC(O)Cn1c(NCc2ccco2)nc2c1c(=O)n(C)c(=O)n2C (stereo unspecified),"inconclusive: 20.6 µM [inhibitor, single point]"
8,COc1ccc(N2CCn3c2nc2c3c(=O)n(CCc3ccccc3)c(=O)n2C)c(OC)c1,inactive
9,Cc1cccc(-[n+]2c(-c3cccc(Br)c3)[nH]c3nc4ccccc4nc32)c1,"inconclusive: 6.31 µM [activator, single point]"
10,Cc1ccccc1NC(=O)N1CCCC(c2nc(-c3ccc(C(C)C)cc3)no2)C1 (stereo unspecified),"inconclusive: 1.16 µM [activator, single point]"
11,CCc1cc(CC)c(/C=N/NC(N)=O)c(CC)c1/C=N/NC(N)=O,"inconclusive: 2 µM [activator, full curve]"
12,O=[N+]([O-])c1cccc(COc2ncnc3cc([N+](=O)[O-])ccc23)c1,"inconclusive: 11.2 µM [inhibitor, partial curve, poor fit]"
13,CCCCOC(=O)Nc1nc(C)c(C(=O)OCC)s1,inactive
14,CCOc1ccc(NC(=O)C2CCCN2S(=O)(=O)c2ccc(OCC)cc2)cc1 (stereo unspecified),"inconclusive: 35.5 µM [activator, single point]"
15,CN(C)C(=O)CSc1nc(-c2ccccc2)c(-c2ccccc2)o1,"inconclusive: 3.55 µM [activator, single point]"
16,O=C(Nc1ccc(N2CCN(C(=O)c3cccs3)CC2)cc1)c1ccccc1Cl,"inconclusive: 7.94 µM [inhibitor, partial curve, poor fit]"
17,CCN1C(C(=O)c2ccccc2)=C(OC(=O)C(C)C)c2ccccc2S1(=O)=O,"inconclusive: 8.91 µM [inhibitor, partial curve, poor fit]"
18,COc1cc2c(cc1NC(=O)CN(C)Cc1nc3ccccc3c(=O)[nH]1)oc1ccccc12,active: 23.1 µM
19,CCCOc1cccc(C(=O)Nc2ccc(-c3nc4ccccc4s3)c(Cl)c2)c1,"inconclusive: 1.58 µM [activator, partial curve, poor fit]"
20,COc1ccc(NC(=O)c2ccc(OC(F)F)cc2)cc1Cl,inactive
21,CC(C)Cn1nc(NC(=O)c2ccco2)c2cc3ccccc3nc21,"inconclusive: 22.4 µM [inhibitor, single point]"
22,COC(=O)Cn1c(CN2CCN(c3ccc(OC)cc3)CC2)nc2c1c(=O)[nH]c(=O)n2C,inactive

row,SMILES,Potency
1,O=C(Nc1ccc2oc(-c3cccnc3)nc2c1)c1ccc(Br)o1,inactive
2,COC(=O)c1ccc2nc(Nc3nc4ccc(F)cc4s3)sc2c1,active: 0.794 µM
3,CCn1c(Cc2cccn2C)nnc1SCC(=O)c1ccc(C)cc1,"inconclusive: 0.251 µM [inhibitor, full curve, poor fit]"
4,O=C(Nc1ccc(O)c(-c2nc3ccccc3s2)c1)C1=COCCO1,"inconclusive: 0.316 µM [inhibitor, partial curve, poor fit]"
5,O=C(CSc1ncn[nH]1)c1ccc2c(c1)OCO2,"inconclusive: 2.59 µM [activator, partial curve, poor fit]"
6,O=C(c1ccc(Cl)cc1)N1CCN(c2ccc([N+](=O)[O-])c3ncccc23)CC1,"inconclusive: 8.2 µM [inhibitor, partial curve]"
7,O=C(c1ccc(N2CCCS2(=O)=O)cc1)N1CCN(c2ccccc2)CC1,"inconclusive: 3.55 µM [activator, single point]"
8,COc1ccc(C=C(c2nc3ccccc3s2)c2nc3ccccc3s2)cc1O,"inconclusive: 15.8 µM [inhibitor, single point]"
9,O=C1[C@@H]2[C@H](ON(c3ccccc3)[C@H]2c2ccncc2)C(=O)N1c1ccccc1,inactive
10,COc1ccccc1NC(=S)N(CCCN(C)C)Cc1cc2cc3c(cc2[nH]c1=O)OCO3,"inconclusive: 14.1 µM [inhibitor, single point]"
11,c1ccc(Cn2nnc3c(Nc4ccc5c(c4)OCO5)nc(C4CC4)nc32)cc1,"inconclusive: 11.6 µM [inhibitor, partial curve]"
12,CCCCn1cc(S(=O)(=O)c2ccc(OC)cc2)c(=O)c2cc(F)c(F)cc21,inactive
13,CC(NCC(=O)Nc1cc(S(=O)(=O)N2CCOCC2)ccc1Cl)c1ccc(Cl)cc1Cl (stereo unspecified),"inconclusive: 10 µM [inhibitor, partial curve, poor fit]"
14,O=C(C1CCCO1)N1CCN(S(=O)(=O)c2cccc3nsnc23)CC1 (stereo unspecified),inactive
15,O=[N+]([O-])c1cccc(NNS(=O)(=O)c2ccccc2F)c1,active: 8.91 µM
16,CSc1ccccc1NC(=O)CN(C)CC(=O)Nc1cccc(Br)c1,"inconclusive: 22.4 µM [inhibitor, single point]"
17,CC(C)c1nc(N2CCOCC2)c(C#N)c2c1COC(C)(C)C2,"inconclusive: 0.794 µM [inhibitor, full curve, poor fit]"
18,CCCCn1c(SCC(=O)Nc2ccc3c(c2)CCC3)nc2ccccc2c1=O,"inconclusive: 20.6 µM [activator, single point]"
19,CCOC(=O)CCSc1nc(C)c2cc(C)c(C)cc2n1,inactive
20,COc1ccc(OCc2cc(C(=O)N3CCCCCC3)no2)c(Cl)c1,"inconclusive: 15.8 µM [activator, single point]"
21,O=C(CNC(=S)N(Cc1ccccc1F)C1CCCCC1)NCC1CCCO1 (stereo unspecified),"inconclusive: 22.4 µM [inhibitor, partial curve, poor fit]"
22,CC1=CC(C)C(C(=O)O)C(C(=O)O)C1 (stereo unspecified),inactive

# A section of the results above, as a working copy:
row,SMILES,Potency
19,O=C(CSc1nnc2n1CCCCC2)Nc1ccc(N2CCOCC2)cc1,inactive
20,CCCC(O)c1nc2ccccc2n1CCCCOc1ccc(OC)cc1 (stereo unspecified),"inconclusive: 35.5 µM [activator, partial curve, poor fit]"

# From PubChem BioAssay AID540276 (National Center for Advancing Translational Sciences (NCATS), 2011)
